Measured values taken from PubChem BioAssay AID1347076 (National Center for Advancing Translational Sciences (NCATS), 2019).
Out of some 400,000 compounds screened, about 13,000 (3.2%) were called active. The shares of active, inactive and inconclusive entries below differ from those in the screen. Calls come from the whole dose curve; as a rule, active = well fitted cell-killing curve with a large enough effect; inconclusive = small, poorly fitted or top-dose-only effect, or effect the other way; inactive = flat fitted curve, though single readings scatter. Potencies beside an inconclusive call are fits to weak or partial responses and may not hold up.

Test: qHTS assay for MDR1-selective chemotherapeutics: Primary screen using the drug-selected MDR subline cells KB-V1; note: nearly all actives have a fitted effect of over 60% in size
Conditions: KB-V1 MDR cells viability, CellTiter-Glo, 72 h; series mostly up to 46.1 µM
Procedure, shortened: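 KB-V1 cells (P-gp-expressing MDR subline of KB-3-1) in phenol-red-free DMEM with 10% FBS were exposed to library compounds over a concentration series for 72 h at 37 degrees C. Viability read by CellTiter-Glo luminescence; concentration-effect curves fitted after normalization.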
Potency is the fitted concentration of half-maximal effect.

SMILES	Potency
Cc1cccc(NC(=O)c2ccc(COc3ccc4ccccc4c3)o2)n1	inactive
O=S(=O)(Nc1nccs1)c1ccc(F)cc1	inactive
CSc1ncccc1C(=O)N1CCCC(N2CCN(c3ccccc3C)CC2)C1 (stereo unspecified)	inconclusive: 8.2 µM [cytotoxic, partial curve]
COCCOc1cc(-n2ccnc2SC)c(Cl)cc1Cl	inconclusive: 18.4 µM [cytotoxic, partial curve, poor fit]
O=C(NCCN1C(=O)S/C(=C\c2ccccc2Cl)C1=O)C1=COCCO1	inconclusive: 20.6 µM [cytotoxic, single point]
CN(C(=O)CN1C(=O)c2cccc(N)c2C1=O)C1CCCCC1	inconclusive: 29.1 µM [cytotoxic, single point]
C/C=C(\C)CN1CCC(Oc2cc(C(=O)NC3CC3)ccc2OC)CC1	inconclusive: 29.1 µM [cytotoxic, single point]
COc1cccc(-c2nc(CCl)cs2)c1OC	inconclusive: 29.1 µM [cytotoxic, single point]
CC(C)CCn1nnnc1CN1CCN(c2ccc(F)cc2)CC1	inconclusive: 20.6 µM [cytotoxic, single point]
CCC1Sc2ccc(S(=O)(=O)Nc3cc(OC)cc(OC)c3)cc2NC1=O (stereo unspecified)	inactive
O=C(CC1Sc2ccccc2NC1=O)NNc1cc(Cl)ccc1Cl (stereo unspecified)	inactive
O=C(O)c1cccnc1SCc1cccc(Cl)c1	inconclusive: 3.66 µM [rising, partial curve]
CCOP(=O)(OCC)C(Nc1cccc(C(F)(F)F)c1)c1ccc(C)cc1 (stereo unspecified)	inconclusive: 16.4 µM [cytotoxic, single point]
O=C(Oc1cccc2ccccc12)c1ccccc1	inactive
O=C(Nc1cccc(-n2cnnn2)c1)C1CCCN(C(=O)Cc2cccc(Cl)c2)C1 (stereo unspecified)	inactive
Cc1ccc(C)c(CSc2nnc(-c3cccs3)n2Cc2ccco2)c1	active: 18.4 µM
Cc1ccc(-n2c(-c3ccncc3)n[nH]c2=S)cc1C	inconclusive: 20.6 µM [rising, single point]
CCCC[C@@H](CNC)NC[C@H](Cc1ccc(O)cc1)NCCc1ccc(OCC)cc1	inconclusive: 29.1 µM [rising, single point]
Clc1ccc(-c2nc3ccc(Br)cn3c2Cc2cccc(Cl)c2)cc1	inactive
O=C(NN=C1CCCC1)c1cc(-c2ccccc2)n[nH]1	inactive
OC[C@H]1O[C@@](CO)(O[C@H]2O[C@H](CO)[C@@H](O)[C@H](O)[C@H]2O)[C@@H](O[C@H]2O[C@H](CO)[C@@H](O)[C@H](O)[C@H]2O)[C@@H]1O	inactive
COC(=O)c1ccc2nc(-c3ccc(F)cc3)c(Cc3ccc(C)cc3)n2c1	active: 9.2 µM
COc1ccc2c(CC(=O)Nc3c(C)n(C)n(-c4ccccc4)c3=O)coc2c1	inconclusive: 29.1 µM [rising, single point]
O=C1C2C3c4ccccc4C(c4ccccc43)C2C(=O)N1c1cccnc1 (stereo unspecified)	inconclusive: 18.4 µM [cytotoxic, single point]

Looked up one by one from above, 2 records:
SMILES	Potency
CC(C)CCn1nnnc1CN1CCN(c2ccc(F)cc2)CC1	inconclusive: 20.6 µM [cytotoxic, single point]
O=C(NN=C1CCCC1)c1cc(-c2ccccc2)n[nH]1	inactive

A stretch of the results above:
SMILES	Potency
CC(C)CCn1nnnc1CN1CCN(c2ccc(F)cc2)CC1	inconclusive: 20.6 µM [cytotoxic, single point]
CCC1Sc2ccc(S(=O)(=O)Nc3cc(OC)cc(OC)c3)cc2NC1=O (stereo unspecified)	inactive

(cont.)

SMILES	Potency
COc1ccc(CN2C(=O)NC3(CCCc4ccccc43)C2=O)cc1F (stereo unspecified)	inconclusive: 16.4 µM [cytotoxic, single point]
O=S(=O)(NCCc1csc(-c2cccnc2)n1)c1cccc(F)c1	inconclusive: 16.4 µM [cytotoxic, single point]
Cc1cc(C)cc(NC(=S)Nc2cccc3cnccc23)c1	inactive
O=C(NCc1ccc2c(c1)OCO2)C1CCN(C(=O)Nc2ccc(Cl)cc2)CC1	inconclusive: 4.61 µM [cytotoxic, full curve, poor fit]
CCOC(=O)Nc1cccc(C(=O)O)c1	inconclusive: 18.4 µM [rising, partial curve, poor fit]
COc1ccc2c(c1)c1c(c(=O)n(Cc3ccccc3)c(=O)n1Cc1ccccc1)n2C	inactive
O=C(Nc1ccc(F)c(F)c1)C1CCN(S(=O)(=O)c2cccc3nonc23)CC1	active: 11.6 µM
COc1ccc(CN2CCN(c3cc(C)nc4c5c(C)cc(C)nc5nn34)CC2)cc1F	active: 2.31 µM
CC(=O)Nc1ccc(S(=O)(=O)NCc2ccncc2)cc1	inactive
O=[N+]([O-])c1cc(/C=N\O)ccc1Oc1ccc(F)cc1	inactive
O=C(O)Cn1cc(/C=C/[N+](=O)[O-])c2ccccc21	inconclusive: 29.1 µM [rising, single point]
CCCCCCCCN1C(=O)[C@H](CC(=O)NCCCCc2ccccc2)C[C@@]2(C(=O)OC)CC(C)(C)CC=C12	inconclusive: 13 µM [cytotoxic, partial curve, poor fit]
O=c1sc2ccccc2c(N2CCCCC2)c1[N+](=O)[O-]	inconclusive: 32.6 µM [rising, partial curve, poor fit]
Cc1c(C=O)c2ccccn2c1C(=O)c1cccs1	inconclusive: 29.1 µM [cytotoxic, single point]
CCOC(=O)NC(=O)CSc1nc(C)cc(C(F)(F)F)c1C#N	inconclusive: 23.1 µM [cytotoxic, single point]
Nn1c(Cc2ccccc2F)nnc1SCC(=O)Nc1cccc(S(=O)(=O)NC2=NCCCCC2)c1	inconclusive: 29.1 µM [rising, single point]
CCOC(=O)c1cccc(NC(=O)Nc2ccc3c(c2)N(C)C(=O)c2ccccc2S3)c1	inactive
CCOP(=O)(OCC)c1ccc2ccc3ccccc3c(=O)c2c1	inactive
O=C(NNC(=O)c1cc(OCC(F)(F)F)ccc1OCC(F)(F)F)c1ccc(Cl)c(Cl)c1	inconclusive: 20.6 µM [cytotoxic, single point]
O=S1(=O)C[C@@H](O)[C@@H](Nc2ccccc2)C1	inconclusive: 7.31 µM [rising, partial curve, poor fit]
COc1ccc(S(=O)(=O)Nc2ccc(F)cc2)cc1N(C)S(=O)(=O)c1ccc(Cl)cc1	inconclusive: 23.1 µM [cytotoxic, single point]
O=C(CCCN1CCC(O)(c2cccc(C(F)(F)F)c2)CC1)c1ccc(F)cc1	inconclusive: 5.8 µM [cytotoxic, full curve]
O=C(Nc1ccccc1F)c1ccccc1-c1ccccc1	inconclusive: 16.4 µM [cytotoxic, partial curve]
CN(C(=S)Nc1ccc(Oc2ccccc2)cc1)C1CCCCC1	inactive

SMILES	Potency
N#CCC(=O)NCCCOC(=O)Nc1ccc(Cl)c(Cl)c1	inconclusive: 23.1 µM [cytotoxic, single point]
COc1ccc(CCNC(=O)CCS(=O)(=O)c2ccc3c(c2)NC(=O)CS3)cc1OC	inconclusive: 29.1 µM [rising, single point]
CC(C)CC(=O)Nc1ccc(S(=O)(=O)Nc2nccs2)cc1	inconclusive: 29.1 µM [rising, single point]
Cc1cccc2c(=O)oc(-c3ccccc3Cl)nc12	inconclusive: 20.6 µM [rising, single point]
C[C@H](CO)N1C[C@H](C)[C@@H](CN(C)Cc2ccc(-c3ccccc3)cc2)Oc2c(NC(=O)c3ccncc3)cccc2C1=O	inactive
Cc1ccccc1OCC(=O)NNC(=S)NC(=O)c1ccccc1[N+](=O)[O-]	inconclusive: 8.2 µM [cytotoxic, partial curve]
C/C=C/c1ccc(OCCCCN2CCN(CC)CC2)c(OC)c1	inactive
Fc1ccc(CNc2nc3ccccc3n3cnnc23)cc1	inconclusive: 29.1 µM [rising, single point]
c1ccc(-c2cn3nc4c(nc3n2)CCCC4)cc1	inconclusive: 8.2 µM [cytotoxic, partial curve]
COc1ccc(/C=N/NC(=O)c2ccn[nH]2)cc1COc1ccc(F)cc1	inconclusive: 25.9 µM [cytotoxic, single point]
O=C(Nc1ccc(S(=O)(=O)Nc2cnc3ccccc3n2)cc1)c1ccc(F)cc1	inactive
Cc1[nH]c(C)c(S(=O)(=O)Nc2ccc(F)cc2Cl)c1C(=O)N1CCCC1	inconclusive: 16.4 µM [rising, single point]
O=C1Nc2ccccc2C1=Nc1ccc2[nH]c3ccccc3c2c1	inactive
Cc1n[nH]c(=O)c2c(NC(=O)CSc3nn(-c4ccccc4)c(=S)s3)oc(C)c12	inactive
Cc1ccccc1Cn1c(=O)n(CCCCC(=O)NCc2ccccc2Cl)c(=O)c2ccccc21	inactive
COCCN(C(=S)Nc1ccc(Cl)cc1OC)C1CCN(C(C)=O)CC1	inactive
Cc1ccc(N2CCCn3c2cc(C)c(C#N)c3=O)cc1C	inconclusive: 14.6 µM [cytotoxic, partial curve]
CCOC(=O)c1sc(NC(=O)c2ccccc2OCC)nc1C	inconclusive: 14.6 µM [cytotoxic, single point]
CCOc1ncccc1C(=O)Nc1ncc(C)s1	inconclusive: 18.4 µM [cytotoxic, partial curve, poor fit]
CCc1nnc(NS(=O)(=O)c2ccc(N=Cc3c(C)[nH]n(-c4ccc(C)cc4)c3=O)cc2)s1	inconclusive: 13 µM [cytotoxic, partial curve]
CCCCCCN1C[C@@H](n2cc(C3CC3)nn2)[C@H](O)C[C@@H]1c1ccccc1	inconclusive: 3.26 µM [rising, full curve, poor fit]
O=S(=O)(c1ccccc1)c1cnc(-c2cccnc2)nc1-c1ccccc1	active: 8.2 µM
COc1ccccc1OCCNC(=O)c1cc(SC)ccc1Cl	inconclusive: 18.4 µM [cytotoxic, single point]
